{"source": "PubChem BioAssay AID493246 (Drosophila RNAi Screening Center, 2011)", "purpose": "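Genome-wide search for dsRNAs that reduce cell number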 (primary screen)", "cell system": "Drosophila Kc and S2R+ cells", "knock-down reagent": "long dsRNA against Drosophila genes", "measurement": "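Raw, unnormalised count of remaining cells in each well; per-plate z-scores of cell number underlie the calls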", "reading the numbers": "Kc cell number and S2R+ cell number: higher = more cells remaining", "hit rule": "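Counted as a hit if cell number falls by a z-score of at least 3 within its plate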", "note": "The deposit covers about 21,000 reagents; shown is a random part of those with a known target gene and a result. Over the whole deposit, 429 (2%) got an active call. 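Values are raw and not normalised between plates; calls rest on per-plate z-scores that were not deposited.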 The record does not give: the amount of reagent, the time to read-out."}
The opening 2 records, ahead of the listing:
{"target":"CG15641","DRSC id":"DRSC19677","Kc cell number, rep 1":1.49e6,"Kc cell number, rep 2":1.49e6,"S2R+ cell number, rep 1":1.05e6,"S2R+ cell number, rep 2":1.16e6,"Outcome":"inactive"}
{"target":"Or45b","DRSC id":"DRSC07488","Kc cell number, rep 1":1.71e6,"Kc cell number, rep 2":1.75e6,"S2R+ cell number, rep 1":1.37e6,"S2R+ cell number, rep 2":1.51e6,"Outcome":"inactive"}

Main list, from the first entry:
{"target":"CG15641","DRSC id":"DRSC19677","Kc cell number, rep 1":1.49e6,"Kc cell number, rep 2":1.49e6,"S2R+ cell number, rep 1":1.05e6,"S2R+ cell number, rep 2":1.16e6,"Outcome":"inactive"}
{"target":"Or45b","DRSC id":"DRSC07488","Kc cell number, rep 1":1.71e6,"Kc cell number, rep 2":1.75e6,"S2R+ cell number, rep 1":1.37e6,"S2R+ cell number, rep 2":1.51e6,"Outcome":"inactive"}
{"target":"Peritrophin-15b","DRSC id":"DRSC02266","Kc cell number, rep 1":1.64e6,"Kc cell number, rep 2":1.67e6,"S2R+ cell number, rep 1":1.25e6,"S2R+ cell number, rep 2":1.40e6,"Outcome":"inactive"}
{"target":"CG34040","DRSC id":"DRSC03902","Kc cell number, rep 1":5.05e5,"S2R+ cell number, rep 1":8.03e5,"Outcome":"inactive"}
{"target":"RpL34a","DRSC id":"DRSC15964","Kc cell number, rep 1":1.77e6,"Kc cell number, rep 2":1.64e6,"S2R+ cell number, rep 1":1.02e6,"S2R+ cell number, rep 2":1.13e6,"Outcome":"inactive"}
{"target":"CG13739","DRSC id":"DRSC06410","Kc cell number, rep 1":1.43e6,"Kc cell number, rep 2":1.41e6,"S2R+ cell number, rep 1":6.26e5,"S2R+ cell number, rep 2":7.22e5,"Outcome":"active"}
{"target":"Fkbp14","DRSC id":"DRSC04615","Kc cell number, rep 1":1.44e6,"Kc cell number, rep 2":1.52e6,"S2R+ cell number, rep 1":1.14e6,"S2R+ cell number, rep 2":1.31e6,"Outcome":"inactive"}
{"target":"CG7101","DRSC id":"DRSC20023","Kc cell number, rep 1":1.59e6,"Kc cell number, rep 2":1.60e6,"S2R+ cell number, rep 1":1.17e6,"S2R+ cell number, rep 2":1.29e6,"Outcome":"inactive"}
{"target":"CG14949","DRSC id":"DRSC08408","Kc cell number, rep 1":1.49e6,"Kc cell number, rep 2":1.38e6,"S2R+ cell number, rep 1":1.03e6,"S2R+ cell number, rep 2":1.33e6,"Outcome":"inactive"}
{"target":"GstD2","DRSC id":"DRSC16684","Kc cell number, rep 1":1.43e6,"Kc cell number, rep 2":1.39e6,"S2R+ cell number, rep 1":1.25e6,"S2R+ cell number, rep 2":1.34e6,"Outcome":"inactive"}
{"target":"gem","DRSC id":"DRSC06093","Kc cell number, rep 1":1.36e6,"Kc cell number, rep 2":1.39e6,"S2R+ cell number, rep 1":1.10e6,"S2R+ cell number, rep 2":1.15e6,"Outcome":"inactive"}
{"target":"gem","DRSC id":"DRSC06847","Kc cell number, rep 1":1.44e6,"Kc cell number, rep 2":1.52e6,"S2R+ cell number, rep 1":1.21e6,"S2R+ cell number, rep 2":1.31e6,"Outcome":"inactive"}
{"target":"CG4597","DRSC id":"DRSC10432","Kc cell number, rep 1":1.31e6,"Kc cell number, rep 2":1.26e6,"S2R+ cell number, rep 1":1.09e6,"S2R+ cell number, rep 2":1.18e6,"Outcome":"inactive"}
{"target":"CG15385","DRSC id":"DRSC00399","Kc cell number, rep 1":1.65e6,"Kc cell number, rep 2":1.71e6,"S2R+ cell number, rep 1":1.10e6,"S2R+ cell number, rep 2":1.23e6,"Outcome":"inactive"}
{"target":"CG7458","DRSC id":"DRSC11829","Kc cell number, rep 1":1.38e6,"Kc cell number, rep 2":1.38e6,"S2R+ cell number, rep 1":1.01e6,"S2R+ cell number, rep 2":1.11e6,"Outcome":"inactive"}
{"target":"RSG7","DRSC id":"DRSC20274","Kc cell number, rep 1":1.59e6,"Kc cell number, rep 2":1.59e6,"S2R+ cell number, rep 1":1.15e6,"S2R+ cell number, rep 2":1.21e6,"Outcome":"inactive"}
{"target":"CG18404","DRSC id":"DRSC15323","Kc cell number, rep 1":1.49e6,"Kc cell number, rep 2":1.48e6,"S2R+ cell number, rep 1":9.92e5,"S2R+ cell number, rep 2":1.08e6,"Outcome":"inactive"}
{"target":"Septin1","DRSC id":"DRSC20573","Kc cell number, rep 1":1.49e6,"Kc cell number, rep 2":1.48e6,"S2R+ cell number, rep 1":9.98e5,"S2R+ cell number, rep 2":1.14e6,"Outcome":"inactive"}
{"target":"alph","DRSC id":"DRSC15398","Kc cell number, rep 1":5.05e5,"S2R+ cell number, rep 1":6.77e5,"Outcome":"inactive"}
{"target":"CG10062","DRSC id":"DRSC05960","Kc cell number, rep 1":1.39e6,"Kc cell number, rep 2":1.41e6,"S2R+ cell number, rep 1":1.20e6,"S2R+ cell number, rep 2":1.21e6,"Outcome":"inactive"}
{"target":"Trpgamma","DRSC id":"DRSC03626","Kc cell number, rep 1":1.50e6,"Kc cell number, rep 2":1.65e6,"S2R+ cell number, rep 1":1.18e6,"S2R+ cell number, rep 2":1.31e6,"Outcome":"inactive"}
{"target":"aay","DRSC id":"DRSC11320","Kc cell number, rep 1":1.37e6,"Kc cell number, rep 2":1.49e6,"S2R+ cell number, rep 1":1.23e6,"S2R+ cell number, rep 2":1.20e6,"Outcome":"inactive"}
{"target":"CG9777","DRSC id":"DRSC20208","Kc cell number, rep 1":1.56e6,"Kc cell number, rep 2":1.63e6,"S2R+ cell number, rep 1":1.14e6,"S2R+ cell number, rep 2":1.19e6,"Outcome":"inactive"}
{"target":"CG5938","DRSC id":"DRSC15923","Kc cell number, rep 1":5.86e5,"S2R+ cell number, rep 1":8.70e5,"Outcome":"inactive"}
{"target":"CG11584","DRSC id":"DRSC19408","Kc cell number, rep 1":1.59e6,"Kc cell number, rep 2":1.63e6,"S2R+ cell number, rep 1":1.13e6,"S2R+ cell number, rep 2":1.17e6,"Outcome":"inactive"}
{"target":"Cyp40","DRSC id":"DRSC10980","Kc cell number, rep 1":1.42e6,"Kc cell number, rep 2":1.46e6,"S2R+ cell number, rep 1":1.35e6,"S2R+ cell number, rep 2":1.30e6,"Outcome":"inactive"}
{"target":"unc-13","DRSC id":"DRSC17192","Kc cell number, rep 1":1.19e6,"Kc cell number, rep 2":1.63e6,"S2R+ cell number, rep 1":1.02e6,"S2R+ cell number, rep 2":1.08e6,"Outcome":"inactive"}
{"target":"unc-13","DRSC id":"DRSC17193","Kc cell number, rep 1":1.15e6,"Kc cell number, rep 2":1.51e6,"S2R+ cell number, rep 1":1.07e6,"S2R+ cell number, rep 2":1.15e6,"Outcome":"inactive"}
{"target":"unc-13","DRSC id":"DRSC17223","Kc cell number, rep 1":5.07e5,"S2R+ cell number, rep 1":7.82e5,"Outcome":"inactive"}
